Our source for the binding values is publication PMC9931222.

For the experiment, the target named is T1, Glu-tagged KSR1 (UniProt Q61097).
T1 sequence: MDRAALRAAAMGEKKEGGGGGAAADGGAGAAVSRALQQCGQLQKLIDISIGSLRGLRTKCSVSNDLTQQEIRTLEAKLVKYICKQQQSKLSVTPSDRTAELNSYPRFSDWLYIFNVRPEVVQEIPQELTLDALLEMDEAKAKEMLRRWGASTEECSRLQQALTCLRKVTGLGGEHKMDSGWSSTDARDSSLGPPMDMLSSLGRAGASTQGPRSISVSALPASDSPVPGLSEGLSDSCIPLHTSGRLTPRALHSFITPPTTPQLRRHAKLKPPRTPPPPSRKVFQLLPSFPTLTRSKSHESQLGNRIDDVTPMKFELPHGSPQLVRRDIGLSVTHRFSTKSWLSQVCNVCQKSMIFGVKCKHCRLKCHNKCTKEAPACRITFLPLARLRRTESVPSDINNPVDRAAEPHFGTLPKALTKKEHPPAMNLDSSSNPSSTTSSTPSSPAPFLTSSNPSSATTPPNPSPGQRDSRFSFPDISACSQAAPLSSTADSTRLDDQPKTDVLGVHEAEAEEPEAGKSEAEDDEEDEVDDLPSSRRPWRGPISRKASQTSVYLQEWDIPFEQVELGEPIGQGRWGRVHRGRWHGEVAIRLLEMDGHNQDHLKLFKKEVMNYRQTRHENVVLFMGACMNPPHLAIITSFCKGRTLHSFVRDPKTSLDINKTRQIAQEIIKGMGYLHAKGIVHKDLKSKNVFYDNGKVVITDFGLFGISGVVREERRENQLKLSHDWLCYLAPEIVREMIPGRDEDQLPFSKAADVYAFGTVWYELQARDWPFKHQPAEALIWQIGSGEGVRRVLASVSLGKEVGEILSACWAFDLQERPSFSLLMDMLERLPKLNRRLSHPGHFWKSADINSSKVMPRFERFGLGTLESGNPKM
In words: co-IP; HEK293T transfected with Glu- and Flag-tagged KSR1 constructs; EGF-stimulated where indicated; preimmune serum as control.

No constants are given. Whether binding was seen depends on the method and setting. Binding seen in cells or lysates may run through a third protein. Some binding calls cover weakened binding; strength is not graded here. Tags and fused reporters may be left off the sequences shown.

B1: Flag-tagged KSR1 C809Y (protein, UniProt Q61097 1-873)
chain: MDRAALRAAAMGEKKEGGGGGAAADGGAGAAVSRALQQCGQLQKLIDISIGSLRGLRTKCSVSNDLTQQEIRTLEAKLVKYICKQQQSKLSVTPSDRTAELNSYPRFSDWLYIFNVRPEVVQEIPQELTLDALLEMDEAKAKEMLRRWGASTEECSRLQQALTCLRKVTGLGGEHKMDSGWSSTDARDSSLGPPMDMLSSLGRAGASTQGPRSISVSALPASDSPVPGLSEGLSDSCIPLHTSGRLTPRALHSFITPPTTPQLRRHAKLKPPRTPPPPSRKVFQLLPSFPTLTRSKSHESQLGNRIDDVTPMKFELPHGSPQLVRRDIGLSVTHRFSTKSWLSQVCNVCQKSMIFGVKCKHCRLKCHNKCTKEAPACRITFLPLARLRRTESVPSDINNPVDRAAEPHFGTLPKALTKKEHPPAMNLDSSSNPSSTTSSTPSSPAPFLTSSNPSSATTPPNPSPGQRDSRFSFPDISACSQAAPLSSTADSTRLDDQPKTDVLGVHEAEAEEPEAGKSEAEDDEEDEVDDLPSSRRPWRGPISRKASQTSVYLQEWDIPFEQVELGEPIGQGRWGRVHRGRWHGEVAIRLLEMDGHNQDHLKLFKKEVMNYRQTRHENVVLFMGACMNPPHLAIITSFCKGRTLHSFVRDPKTSLDINKTRQIAQEIIKGMGYLHAKGIVHKDLKSKNVFYDNGKVVITDFGLFGISGVVREERRENQLKLSHDWLCYLAPEIVREMIPGRDEDQLPFSKAADVYAFGTVWYELQARDWPFKHQPAEALIWQIGSGEGVRRVLASVSLGKEVGEILSAYWAFDLQERPSFSLLMDMLERLPKLNRRLSHPGHFWKSADINSSKVMPRFERFGLGTLESGNPKM
On to B1, for which the binding result is “binds”.
